Some of the results follow.
Key:
Assay in all cases: log2 fold change, soluble protein after heating vs DMSO (PISA); higher = thermal stabilisation; K562 cells, 10 uM, 30 min; active = over 0.2 and 3.5 SD of the protein, either way, in both replicates (recomputed)
[1] = compound: COC1=CC=C(C=C1)CN2C=CC3=C2C=C(C=C3)C(=O)NO
Summary of the method: (§1)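 For each measurement, 10 μM compound was applied for 30 min to K562 cells at 2×10^6 cells/mL. Aliquots were heated for 3 min across 48°C-58°C, pooled, and extracted in PBS with 0.5% NP-40 at 4°C; the supernatant after 21,000xg for 90 min was soluble protein. This was quantified by TMTpro 16plex LC-MS/MS with channel sums equalised, and thermal stability was reported relative to control samples from duplicates, on a log2 fold-change scale.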

Protein sequences, listed by entry. Tags and fused reporters are not part of them. Lines headed by an entry give the natural chain unless they say otherwise; changes in a name come on top.
UniProt Q8NG11: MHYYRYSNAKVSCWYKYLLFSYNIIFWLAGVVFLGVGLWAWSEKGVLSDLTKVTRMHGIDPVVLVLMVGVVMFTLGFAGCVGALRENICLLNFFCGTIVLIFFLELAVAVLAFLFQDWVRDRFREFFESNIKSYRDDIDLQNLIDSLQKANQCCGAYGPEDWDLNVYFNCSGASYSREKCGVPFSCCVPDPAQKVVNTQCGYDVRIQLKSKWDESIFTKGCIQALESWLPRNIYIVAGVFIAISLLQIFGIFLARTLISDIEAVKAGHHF
UniProt Q13885, whole entry, looked up: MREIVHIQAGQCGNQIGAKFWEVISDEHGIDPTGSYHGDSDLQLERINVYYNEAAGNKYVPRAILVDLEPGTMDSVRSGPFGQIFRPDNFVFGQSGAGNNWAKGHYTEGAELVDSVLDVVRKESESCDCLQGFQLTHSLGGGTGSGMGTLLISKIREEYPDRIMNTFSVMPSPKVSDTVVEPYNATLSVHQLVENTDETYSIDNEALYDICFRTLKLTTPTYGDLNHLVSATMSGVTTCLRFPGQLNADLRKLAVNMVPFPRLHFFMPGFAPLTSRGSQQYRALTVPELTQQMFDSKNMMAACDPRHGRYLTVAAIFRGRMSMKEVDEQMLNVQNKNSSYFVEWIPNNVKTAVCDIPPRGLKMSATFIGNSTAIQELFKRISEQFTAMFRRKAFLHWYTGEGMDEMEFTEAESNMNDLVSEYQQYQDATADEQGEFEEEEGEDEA
UniProt Q969M7: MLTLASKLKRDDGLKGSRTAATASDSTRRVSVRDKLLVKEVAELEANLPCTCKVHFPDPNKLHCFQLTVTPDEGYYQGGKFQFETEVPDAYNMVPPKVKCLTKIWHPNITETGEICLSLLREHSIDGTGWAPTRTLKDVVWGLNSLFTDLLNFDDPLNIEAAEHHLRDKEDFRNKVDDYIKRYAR
UniProt P61086: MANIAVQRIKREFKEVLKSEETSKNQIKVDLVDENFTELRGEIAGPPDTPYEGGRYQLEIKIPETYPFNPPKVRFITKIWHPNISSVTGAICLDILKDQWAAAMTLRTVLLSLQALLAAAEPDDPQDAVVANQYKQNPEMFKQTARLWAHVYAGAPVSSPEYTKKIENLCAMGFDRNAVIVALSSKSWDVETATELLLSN
UniProt Q712K3: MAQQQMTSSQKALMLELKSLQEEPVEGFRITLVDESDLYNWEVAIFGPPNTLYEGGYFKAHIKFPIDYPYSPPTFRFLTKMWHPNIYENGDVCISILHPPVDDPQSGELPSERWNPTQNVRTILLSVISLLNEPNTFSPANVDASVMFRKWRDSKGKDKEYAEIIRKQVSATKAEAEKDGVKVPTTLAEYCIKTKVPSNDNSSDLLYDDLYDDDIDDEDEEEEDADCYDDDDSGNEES
UniProt Q9UBT2: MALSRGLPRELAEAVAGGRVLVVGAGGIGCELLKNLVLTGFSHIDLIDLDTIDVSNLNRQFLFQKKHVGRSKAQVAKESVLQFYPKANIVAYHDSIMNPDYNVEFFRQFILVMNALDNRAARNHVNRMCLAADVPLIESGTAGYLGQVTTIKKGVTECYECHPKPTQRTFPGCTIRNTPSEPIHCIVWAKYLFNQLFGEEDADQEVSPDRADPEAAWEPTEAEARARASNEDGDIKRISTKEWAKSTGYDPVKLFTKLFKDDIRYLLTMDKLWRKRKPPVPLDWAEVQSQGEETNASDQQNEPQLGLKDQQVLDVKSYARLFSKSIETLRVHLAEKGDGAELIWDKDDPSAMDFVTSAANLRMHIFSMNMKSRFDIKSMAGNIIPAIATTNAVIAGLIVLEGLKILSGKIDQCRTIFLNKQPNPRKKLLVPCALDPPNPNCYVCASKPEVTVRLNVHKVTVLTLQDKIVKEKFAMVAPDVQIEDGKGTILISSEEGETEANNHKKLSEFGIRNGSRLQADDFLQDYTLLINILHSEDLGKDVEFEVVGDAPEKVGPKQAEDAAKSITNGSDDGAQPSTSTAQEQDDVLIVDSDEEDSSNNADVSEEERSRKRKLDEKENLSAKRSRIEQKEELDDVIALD
UniProt Q3KQV9: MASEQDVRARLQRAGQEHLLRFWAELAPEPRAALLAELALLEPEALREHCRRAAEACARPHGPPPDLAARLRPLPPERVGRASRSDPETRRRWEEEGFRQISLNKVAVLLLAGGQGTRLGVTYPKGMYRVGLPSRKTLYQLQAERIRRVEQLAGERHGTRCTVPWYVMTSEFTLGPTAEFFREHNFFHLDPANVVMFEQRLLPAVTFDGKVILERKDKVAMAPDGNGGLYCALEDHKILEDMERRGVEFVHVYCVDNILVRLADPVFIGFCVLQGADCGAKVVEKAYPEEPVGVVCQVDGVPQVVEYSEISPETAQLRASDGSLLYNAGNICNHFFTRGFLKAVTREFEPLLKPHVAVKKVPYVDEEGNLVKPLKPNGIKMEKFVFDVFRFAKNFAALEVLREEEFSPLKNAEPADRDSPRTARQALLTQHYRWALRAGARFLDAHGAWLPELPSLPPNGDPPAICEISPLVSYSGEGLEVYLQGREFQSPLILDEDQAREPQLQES
UniProt O43156, whole entry, looked up: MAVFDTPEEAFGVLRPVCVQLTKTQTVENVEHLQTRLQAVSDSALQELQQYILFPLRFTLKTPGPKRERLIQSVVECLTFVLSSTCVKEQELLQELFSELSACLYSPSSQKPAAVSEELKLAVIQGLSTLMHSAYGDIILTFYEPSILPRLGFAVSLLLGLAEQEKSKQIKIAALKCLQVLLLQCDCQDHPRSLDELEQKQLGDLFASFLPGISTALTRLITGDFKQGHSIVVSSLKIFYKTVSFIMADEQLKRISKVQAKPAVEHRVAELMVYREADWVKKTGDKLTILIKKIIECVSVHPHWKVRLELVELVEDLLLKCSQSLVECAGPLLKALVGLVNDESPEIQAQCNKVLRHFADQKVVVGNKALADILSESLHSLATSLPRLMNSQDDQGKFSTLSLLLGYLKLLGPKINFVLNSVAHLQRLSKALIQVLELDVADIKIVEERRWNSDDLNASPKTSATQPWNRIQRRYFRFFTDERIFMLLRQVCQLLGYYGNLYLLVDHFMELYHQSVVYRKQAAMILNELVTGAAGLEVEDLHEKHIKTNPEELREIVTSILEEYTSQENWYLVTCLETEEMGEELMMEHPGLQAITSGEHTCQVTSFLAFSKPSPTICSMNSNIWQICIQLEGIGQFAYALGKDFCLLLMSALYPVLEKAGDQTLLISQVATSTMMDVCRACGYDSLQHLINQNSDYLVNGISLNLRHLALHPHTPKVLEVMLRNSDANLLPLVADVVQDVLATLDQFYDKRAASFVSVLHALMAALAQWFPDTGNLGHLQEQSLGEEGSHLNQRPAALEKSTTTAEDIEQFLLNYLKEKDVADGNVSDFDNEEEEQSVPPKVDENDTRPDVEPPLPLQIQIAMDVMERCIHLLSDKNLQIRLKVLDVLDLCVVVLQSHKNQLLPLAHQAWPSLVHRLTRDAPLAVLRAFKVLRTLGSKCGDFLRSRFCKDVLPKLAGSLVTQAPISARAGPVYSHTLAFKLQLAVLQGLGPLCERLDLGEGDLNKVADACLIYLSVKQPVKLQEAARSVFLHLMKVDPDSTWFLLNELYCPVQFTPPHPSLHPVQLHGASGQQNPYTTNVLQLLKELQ
UniProt P68366, whole entry, looked up: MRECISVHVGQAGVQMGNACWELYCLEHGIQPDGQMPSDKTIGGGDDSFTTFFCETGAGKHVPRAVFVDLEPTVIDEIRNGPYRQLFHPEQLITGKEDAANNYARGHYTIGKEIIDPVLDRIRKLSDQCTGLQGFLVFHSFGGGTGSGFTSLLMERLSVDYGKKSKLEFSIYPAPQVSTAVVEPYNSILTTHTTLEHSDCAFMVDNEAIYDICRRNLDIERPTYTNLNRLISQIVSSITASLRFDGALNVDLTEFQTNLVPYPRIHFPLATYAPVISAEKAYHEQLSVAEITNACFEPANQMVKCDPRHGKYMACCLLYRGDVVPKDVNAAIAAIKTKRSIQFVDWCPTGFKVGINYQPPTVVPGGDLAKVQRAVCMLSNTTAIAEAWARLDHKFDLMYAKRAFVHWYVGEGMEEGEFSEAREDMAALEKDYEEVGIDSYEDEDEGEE
UniProt Q9Y385: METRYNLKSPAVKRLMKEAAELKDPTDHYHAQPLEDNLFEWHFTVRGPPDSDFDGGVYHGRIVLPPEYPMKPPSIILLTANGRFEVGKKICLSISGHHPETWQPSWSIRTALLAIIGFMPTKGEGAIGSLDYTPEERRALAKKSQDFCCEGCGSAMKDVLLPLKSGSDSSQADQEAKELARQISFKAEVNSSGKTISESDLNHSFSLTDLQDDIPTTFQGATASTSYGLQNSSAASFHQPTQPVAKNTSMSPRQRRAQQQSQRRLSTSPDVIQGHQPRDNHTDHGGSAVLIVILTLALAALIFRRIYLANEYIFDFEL
UniProt Q16763: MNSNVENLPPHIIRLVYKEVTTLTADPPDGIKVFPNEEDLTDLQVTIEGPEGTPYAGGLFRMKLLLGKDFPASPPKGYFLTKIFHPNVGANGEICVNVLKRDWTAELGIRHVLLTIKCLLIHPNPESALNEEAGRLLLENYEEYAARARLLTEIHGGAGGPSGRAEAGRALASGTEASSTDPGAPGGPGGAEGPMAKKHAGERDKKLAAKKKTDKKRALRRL
UniProt O60637: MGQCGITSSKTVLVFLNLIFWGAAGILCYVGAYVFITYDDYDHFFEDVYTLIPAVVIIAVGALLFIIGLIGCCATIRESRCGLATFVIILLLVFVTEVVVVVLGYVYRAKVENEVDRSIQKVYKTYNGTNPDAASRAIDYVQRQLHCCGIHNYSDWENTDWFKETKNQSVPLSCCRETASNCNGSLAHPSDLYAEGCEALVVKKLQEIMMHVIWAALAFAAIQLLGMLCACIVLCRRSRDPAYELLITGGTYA
UniProt P04350, whole entry, looked up: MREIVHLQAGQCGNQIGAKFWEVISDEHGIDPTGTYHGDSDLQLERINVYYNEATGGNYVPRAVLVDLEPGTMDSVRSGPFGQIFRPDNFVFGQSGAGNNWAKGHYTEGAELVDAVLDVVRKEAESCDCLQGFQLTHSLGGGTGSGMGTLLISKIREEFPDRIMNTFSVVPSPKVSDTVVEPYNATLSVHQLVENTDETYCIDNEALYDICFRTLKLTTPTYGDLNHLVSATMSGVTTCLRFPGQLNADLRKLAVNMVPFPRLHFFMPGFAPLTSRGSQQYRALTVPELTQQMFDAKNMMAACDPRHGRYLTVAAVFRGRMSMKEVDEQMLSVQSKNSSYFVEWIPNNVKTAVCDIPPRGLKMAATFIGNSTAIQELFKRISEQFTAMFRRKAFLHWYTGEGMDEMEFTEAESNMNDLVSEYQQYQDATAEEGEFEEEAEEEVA
UniProt Q6NXR4: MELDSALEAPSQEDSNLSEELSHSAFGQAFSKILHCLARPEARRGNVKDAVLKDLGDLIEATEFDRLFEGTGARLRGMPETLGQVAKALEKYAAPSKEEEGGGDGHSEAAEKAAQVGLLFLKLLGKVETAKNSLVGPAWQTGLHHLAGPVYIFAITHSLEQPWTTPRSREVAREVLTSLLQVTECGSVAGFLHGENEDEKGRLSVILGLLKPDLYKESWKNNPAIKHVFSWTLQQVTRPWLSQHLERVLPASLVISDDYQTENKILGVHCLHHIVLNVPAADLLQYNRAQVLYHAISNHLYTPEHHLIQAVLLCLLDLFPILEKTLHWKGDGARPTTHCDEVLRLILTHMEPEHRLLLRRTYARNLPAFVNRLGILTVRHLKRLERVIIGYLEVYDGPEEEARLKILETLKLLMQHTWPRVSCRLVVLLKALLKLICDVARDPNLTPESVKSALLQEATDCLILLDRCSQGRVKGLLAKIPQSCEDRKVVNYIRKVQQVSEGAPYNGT
UniProt Q9UJK0: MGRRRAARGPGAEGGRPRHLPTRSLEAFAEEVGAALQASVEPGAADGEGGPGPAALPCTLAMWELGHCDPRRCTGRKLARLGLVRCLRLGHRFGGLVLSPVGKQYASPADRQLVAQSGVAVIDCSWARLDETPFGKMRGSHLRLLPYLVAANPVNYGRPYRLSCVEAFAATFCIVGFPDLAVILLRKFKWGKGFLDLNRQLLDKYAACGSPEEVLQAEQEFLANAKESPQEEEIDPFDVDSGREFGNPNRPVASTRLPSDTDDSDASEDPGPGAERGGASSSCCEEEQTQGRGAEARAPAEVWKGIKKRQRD
UniProt Q8TBC4: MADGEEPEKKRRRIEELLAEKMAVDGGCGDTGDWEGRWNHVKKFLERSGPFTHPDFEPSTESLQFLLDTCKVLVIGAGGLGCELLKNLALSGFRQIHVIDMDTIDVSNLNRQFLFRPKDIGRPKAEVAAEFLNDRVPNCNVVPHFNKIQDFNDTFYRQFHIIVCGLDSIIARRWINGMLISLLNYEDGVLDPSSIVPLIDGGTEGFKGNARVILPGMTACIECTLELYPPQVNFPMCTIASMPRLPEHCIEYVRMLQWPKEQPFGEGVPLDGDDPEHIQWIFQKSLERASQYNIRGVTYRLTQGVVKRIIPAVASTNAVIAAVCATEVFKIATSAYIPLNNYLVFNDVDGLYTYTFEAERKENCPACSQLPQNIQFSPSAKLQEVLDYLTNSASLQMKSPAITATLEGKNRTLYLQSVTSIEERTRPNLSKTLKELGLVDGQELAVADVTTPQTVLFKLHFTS

filanesib = compound: CON(C)C(=O)N1N=C(c2cc(F)ccc2F)S[C@@]1(CCCN)c1ccccc1 [filanesib]
Summary of the method: as §1

zotarolimus = compound: CO[C@H]1C[C@@H]2CC[C@@H](C)[C@@](O)(O2)C(=O)C(=O)N2CCCC[C@H]2C(=O)O[C@H]([C@H](C)C[C@@H]2CC[C@H](n3cnnn3)[C@H](OC)C2)CC(=O)[C@H](C)/C=C(\C)[C@@H](O)[C@@H](OC)C(=O)[C@H](C)C[C@H](C)/C=C/C=C/C=C/1C [zotarolimus]
Summary of the method: as §1

idasanutlin = compound: COc1cc(C(=O)O)ccc1NC(=O)[C@@H]1N[C@@H](CC(C)(C)C)[C@](C#N)(c2ccc(Cl)cc2F)[C@H]1c1cccc(Cl)c1F [idasanutlin]
Summary of the method: as §1

alisertib = compound: COc1cc(Nc2ncc3c(n2)-c2ccc(Cl)cc2C(c2c(F)cccc2OC)=NC3)ccc1C(=O)O [alisertib]
Summary of the method: as §1

[2] = compound: COc1cc2nc(-c3cc(F)ccc3O)nc(N[C@@H]3CNC[C@H]3C(C)(C)O)c2cc1OC
Summary of the method: as §1

gefitinib = compound: COc1cc2ncnc(Nc3ccc(F)c(Cl)c3)c2cc1OCCCN1CCOCC1 [gefitinib]
Summary of the method: as §1

[3] = compound: COc1cccc2cc(-c3nc([C@H]4CC[C@H](C(=O)O)CC4)n4ncnc(N)c34)[nH]c12
Summary of the method: as §1

lapatinib = compound: CS(=O)(=O)CCNCc1ccc(-c2ccc3ncnc(Nc4ccc(OCc5cccc(F)c5)c(Cl)c4)c3c2)o1 [lapatinib]
Summary of the method: as §1

pictilisib = compound: CS(=O)(=O)N1CCN(Cc2cc3nc(-c4cccc5[nH]ncc45)nc(N4CCOCC4)c3s2)CC1 [pictilisib]
Summary of the method: as §1

Measured: log2 fold change

TTC19 (UniProt Q6DKK2)
inactive: [1] -0.05 | filanesib -0.078 | zotarolimus -0.04 | idasanutlin -0.077 | alisertib -0.079 | [2] -0.058 | gefitinib 0.037 | [3] 0.064 | lapatinib 0.065 | pictilisib -0.037

TSPAN14 (UniProt Q8NG11)
inactive: [1] -0.058 | filanesib -0.025 | zotarolimus -0.054 | idasanutlin -0.017 | alisertib 0.054 | [2] -0.027 | gefitinib -0.016 | [3] 0.067 | lapatinib -0.078 | pictilisib 0.219

TUBB1 (UniProt Q9H4B7)
inactive: [1] 0.125 | filanesib -0.1 | zotarolimus 0.044 | idasanutlin -0.025 | alisertib -0.008 | [2] 0.023 | gefitinib 0.028 | [3] 0.02 | lapatinib 0.058 | pictilisib -0.048

TUBB4B (UniProt P68371)
inactive: [1] 0.027 | filanesib -0.133 | zotarolimus 0.031 | idasanutlin -0.048 | alisertib 0.055 | [2] -0.057 | gefitinib -0.011 | [3] 0.023 | lapatinib -0.045 | pictilisib -0.046

TUBB2A (UniProt Q13885)
inactive: [1] 0.029 | filanesib -0.043 | zotarolimus 0.088 | idasanutlin 0.001 | alisertib -0.018 | [2] 0.002 | gefitinib -0.011 | [3] 0.016 | lapatinib 0.005 | pictilisib 0.015

UBE2F isoform 2 (UniProt Q969M7)
inactive: [1] -0.068 | filanesib 0.043 | zotarolimus -0.074 | idasanutlin 0 | alisertib 0.015 | [2] 0.059 | gefitinib -0.074 | [3] -0.029 | lapatinib 0.036 | pictilisib 0.089

UBE2K (UniProt P61086)
inactive: [1] 0.214 | filanesib -0.028 | zotarolimus 0.002 | idasanutlin -0.052 | alisertib -0.032 | [2] -0.084 | gefitinib 0.028 | [3] -0.031 | lapatinib 0.066 | pictilisib 0.043

UBAC1 (UniProt Q9BSL1)
inactive: [1] 0.004 | filanesib -0.12 | zotarolimus 0.08 | idasanutlin -0.008 | alisertib -0.072 | [2] -0.053 | gefitinib -0.002 | [3] -0.024 | lapatinib -0.011 | pictilisib 0.04

UBE2R2 (UniProt Q712K3)
inactive: [1] 0.116 | filanesib -0.038 | zotarolimus -0.004 | idasanutlin -0.041 | alisertib -0.041 | [2] -0.007 | gefitinib 0.002 | [3] 0.046 | lapatinib -0.023 | pictilisib 0.035

TSPYL4 (UniProt Q9UJ04)
inactive: [1] -0.111

U2AF1 isoform 2 (UniProt Q01081)
inactive: [1] 0.165 | filanesib 0.034 | zotarolimus 0.043 | idasanutlin 0.055 | alisertib -0.019 | [2] 0.06 | gefitinib 0.036 | [3] 0.045 | lapatinib 0 | pictilisib 0.069

UBA2 (UniProt Q9UBT2)
inactive: [1] 0.004 | filanesib -0.025 | zotarolimus 0.034 | idasanutlin -0.035 | alisertib 0.009 | [2] 0.037 | gefitinib -0.028 | [3] -0.009 | lapatinib -0.005 | pictilisib 0.073

TWF1 (UniProt Q12792)
inactive: [1] 0.143 | filanesib -0.065 | zotarolimus 0.061 | idasanutlin -0.045 | alisertib -0.014 | [2] -0.021 | gefitinib -0.022 | [3] 0.054 | lapatinib 0.023 | pictilisib 0.038

UAP1L1 (UniProt Q3KQV9)
inactive: [1] -0.054 | filanesib -0.1 | zotarolimus -0.038 | idasanutlin -0.037 | alisertib -0.052 | [2] 0.01 | gefitinib 0.015 | [3] 0.078 | lapatinib 0.027 | pictilisib -0.014

TSG101 (UniProt Q99816)
inactive: [1] 0 | filanesib -0.07 | zotarolimus 0.029 | idasanutlin -0.031 | alisertib -0.049 | [2] 0.007 | gefitinib 0.011 | [3] 0.016 | lapatinib -0.013 | pictilisib 0.025

UBE2M (UniProt M0QX69)
inactive: [1] 0.152

TTI1 (UniProt O43156)
inactive: [1] -0.031 | filanesib 0.081 | zotarolimus 0.091 | idasanutlin -0.097 | alisertib -0.112 | [2] 0.02 | gefitinib -0.057 | [3] -0.019 | lapatinib -0.008 | pictilisib 0.049

TUBA4A (UniProt P68366)
inactive: [1] 0.032 | filanesib -0.108 | zotarolimus 0.044 | idasanutlin -0.108 | alisertib -0.027 | [2] -0.043 | gefitinib 0.019 | [3] 0.071 | lapatinib 0.04 | pictilisib 0.04

UBE2A (UniProt P49459)
inactive: [1] 0 | filanesib -0.037 | zotarolimus 0.045 | idasanutlin -0.065 | alisertib -0.074 | [2] 0.054 | gefitinib 0.041 | [3] -0.026 | lapatinib 0.001 | pictilisib 0.086

UBE2J1 (UniProt Q9Y385)
inactive: [1] -0.209 | filanesib 0.119 | zotarolimus 0.046 | idasanutlin -0.12 | alisertib -0.259 | [2] 0.232 | gefitinib -0.035 | [3] 0.241 | lapatinib -0.064 | pictilisib -0.081

TSPAN31 (UniProt Q12999)
inactive: [1] -0.083 | filanesib -0.033 | zotarolimus -0.089 | idasanutlin -0.038 | alisertib -0.13 | [2] -0.013 | gefitinib 0.032 | [3] 0.113 | lapatinib -0.064

TTF2 (UniProt Q9UNY4)
inactive: [1] -0.023 | filanesib 0.2 | zotarolimus -0.069 | idasanutlin -0.037 | alisertib -0.309 | [2] 0.089 | gefitinib -0.008 | [3] -0.068 | lapatinib -0.077 | pictilisib 0.116

Three neighbouring entries out of the list so far, for reference:
TUBA4A (UniProt P68366)
inactive: [1] 0.032 | filanesib -0.108 | zotarolimus 0.044 | idasanutlin -0.108 | alisertib -0.027 | [2] -0.043 | gefitinib 0.019 | [3] 0.071 | lapatinib 0.04 | pictilisib 0.04

UBE2A (UniProt P49459)
inactive: [1] 0 | filanesib -0.037 | zotarolimus 0.045 | idasanutlin -0.065 | alisertib -0.074 | [2] 0.054 | gefitinib 0.041 | [3] -0.026 | lapatinib 0.001 | pictilisib 0.086

UBE2J1 (UniProt Q9Y385)
inactive: [1] -0.209 | filanesib 0.119 | zotarolimus 0.046 | idasanutlin -0.12 | alisertib -0.259 | [2] 0.232 | gefitinib -0.035 | [3] 0.241 | lapatinib -0.064 | pictilisib -0.081

(list continues)

UBE2S (UniProt Q16763)
inactive: [1] 0.003 | filanesib 0.01 | zotarolimus 0.045 | idasanutlin -0.05 | alisertib 0.015 | [2] 0.053 | gefitinib -0.009 | [3] 0.001 | lapatinib -0.035 | pictilisib 0.058

TSPAN3 (UniProt O60637)
inactive: [1] 0.021 | filanesib -0.016 | zotarolimus 0.028 | idasanutlin 0.018 | alisertib -0.005 | [2] -0.058 | gefitinib -0.039 | [3] 0.052 | lapatinib -0.024

TXNL4A (UniProt P83876)
inactive: [1] -0.053 | filanesib -0.09 | zotarolimus -0.009 | idasanutlin -0.015 | alisertib -0.004 | [2] 0.051 | gefitinib 0.024 | [3] 0.038 | lapatinib 0.012 | pictilisib 0.053

TUBB4A (UniProt P04350)
inactive: [1] 0.188 | filanesib -0.048 | zotarolimus 0.085 | idasanutlin 0.062 | alisertib -0.041 | [2] -0.104 | gefitinib -0.033 | [3] 0.14 | lapatinib 0.052

TTI2 (UniProt Q6NXR4)
inactive: [1] 0.012 | filanesib 0.06 | zotarolimus -0.008 | idasanutlin -0.04 | alisertib 0.028 | [2] -0.034 | gefitinib -0.081 | [3] -0.025 | lapatinib 0.033

TXLNA (UniProt P40222)
inactive: [1] 0.02 | filanesib -0.034 | zotarolimus 0.008 | idasanutlin -0.031 | alisertib -0.041 | [2] 0.024 | gefitinib 0.012 | [3] 0.024 | lapatinib -0.005 | pictilisib 0.045

TSR3 (UniProt Q9UJK0)
inactive: [1] -0.009 | filanesib 0.06 | zotarolimus -0.017 | idasanutlin 0.052 | alisertib -0.056 | [2] 0.02 | gefitinib -0.014 | [3] 0.022 | lapatinib 0.011 | pictilisib 0.004

UBA3 (UniProt Q8TBC4)
inactive: [1] 0.075 | filanesib -0.143 | zotarolimus 0.063 | idasanutlin -0.047 | alisertib -0.013 | [2] 0.027 | gefitinib -0.028 | [3] 0.054 | lapatinib -0.003 | pictilisib 0.028

TST (UniProt Q16762)
inactive: [1] 0.119 | filanesib -0.037 | zotarolimus -0.163 | idasanutlin -0.032 | alisertib 0.225 | [2] 0.149 | gefitinib 0.052 | [3] -0.056 | lapatinib -0.021

U2SURP (UniProt O15042)
inactive: [1] 0.157 | filanesib 0.185 | zotarolimus 0.092 | idasanutlin 0.126 | alisertib 0.096 | [2] -0.113 | gefitinib 0.048 | [3] -0.008 | lapatinib 0.068 | pictilisib 0.003

— the supplement of paper PMC10849652
